The target of the assay is FLAG-tagged OPRK1, stably overexpressed in LNCaP cells (UniProt P41145). Briefly: affinity purification with mass spectrometry; LNCaP cells stably overexpressing FLAG-tagged OPRK1 against FLAG-vector controls; lysed under denaturing conditions (so in the source); anti-FLAG magnetic beads; biological triplicates; label-free LC-MS/MS.

Sequences of proteins named here, by UniProt entry; tags and fusion partners are left off.
UniProt P41145: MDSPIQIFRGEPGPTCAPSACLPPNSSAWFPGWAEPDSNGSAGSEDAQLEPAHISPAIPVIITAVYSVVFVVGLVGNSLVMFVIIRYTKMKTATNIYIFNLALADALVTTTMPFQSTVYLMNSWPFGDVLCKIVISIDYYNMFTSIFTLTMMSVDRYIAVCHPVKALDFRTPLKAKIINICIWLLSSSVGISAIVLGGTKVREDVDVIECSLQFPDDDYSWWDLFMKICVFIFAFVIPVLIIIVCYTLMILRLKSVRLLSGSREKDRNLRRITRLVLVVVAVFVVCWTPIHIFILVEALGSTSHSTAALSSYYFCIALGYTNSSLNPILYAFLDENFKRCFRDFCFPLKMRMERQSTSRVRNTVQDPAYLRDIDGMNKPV
UniProt O14745: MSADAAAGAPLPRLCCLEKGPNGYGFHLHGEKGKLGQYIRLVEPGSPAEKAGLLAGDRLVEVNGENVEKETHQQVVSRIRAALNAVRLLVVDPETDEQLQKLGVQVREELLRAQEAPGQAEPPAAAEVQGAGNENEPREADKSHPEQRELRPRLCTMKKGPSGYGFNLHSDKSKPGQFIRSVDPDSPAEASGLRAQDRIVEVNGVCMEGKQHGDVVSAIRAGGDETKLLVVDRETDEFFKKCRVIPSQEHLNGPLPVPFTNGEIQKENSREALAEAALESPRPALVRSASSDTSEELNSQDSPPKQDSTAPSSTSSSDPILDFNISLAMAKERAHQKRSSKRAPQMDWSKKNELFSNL

These are yes or no findings as the source states them, for the method shown. Binding seen in cells or lysates may run through a third protein. A yes stands for co-enrichment or nearness to the bait. Other partners may have been found.

Turning to “SLC9A3R1, endogenous (from UniProt O14745 1-358)”, the binding result is recorded as “binds”.

For the origin of these results see PMC12828004.
